At least one peptide structure holds a part that was inferred or is arguable (an end, a ring closure or a residue). Where no end group is shown, it is not given here.
Columns and labels:
[1] = molecular target: T1, thermostable mature transglutaminase variant (SEQ ID NO: 3) (Streptomyces mobaraensis, UniProt P81453); format: biochemical; conditions: casein assay, Method A; for Improvement in binding affinity of inhibitory peptide relative to WT: decrease in transglutaminase activity relative to wild-type pro-peptide; for Reduction in binding affinity of inhibitory peptide relative to WT: increase in transglutaminase activity relative to wild-type pro-peptide
T1 construct: made in house; host or cells: E. coli (lysate)
From the text: (§1) Method A. A bicistronic expression vector encoding the wild-type pro-domain of transglutaminase (SEQ ID NO: 2) and a thermostable mature transglutaminase variant (SEQ ID NO: 3) as separate polypeptides was cloned as described in PCT/US20/49226 (WO2021/178001 A1). The vector was used as a template for synthesis of a random mutagenesis library targeting the pro-domain coding sequence to create pro-domain peptide variants.
(§2) Method A. Plasmid libraries containing mature transglutaminase and variant pro-domain peptides were plated on Luria-Bertani (LB) agar plates containing 50 μg/mL of kanamycin. After incubation for at least 16 hours at 37° C., colonies were picked and inoculated into 1 mL of LB broth with 50 μg/mL kanamycin in one well of a 96 deep well culture plate. The plate was covered with a breathable seal and incubated overnight at 37° C. with 400 rpm of shaking. 10 μL of the seed culture was used to inoculate 1 mL of media in a 96 deep well culture plate for expression. The expression plate was allowed to grow for 6-8 hours at 30° C. Expression was then induced by adding isopropyl beta-D-1-thiogalactopyranoside (IPTG) to a final concentration of 1 mM and the temperature was reduced to 20° C. while growth continued for an additional 15 hours. Cells were harvested by centrifugation at 4000 rcf for 30 minutes and pellets were frozen at −80° C.
A secondary screen was performed to determine initial rate of transglutaminase in the presence of the pro-peptide variants using transglutaminase-catalyzed labeling of casein with dansylcadaverine (e.g., a commercially available kit such as the Transglutaminase Fluorogenic Activity Assay Kit, T036, Zedira, Germany). Transglutaminase activity was monitored by measuring the fluorescence (excitation wavelength 332 nm; emission wavelength 500 nm) using a BioTek Synergy H1 microplate reader. Transglutaminase-catalyzed covalent coupling (crosslinking) of monodansylcadaverine with N,N-dimethylcasein produces a product that causes a shift in intensity and wavelength of fluorescence of the dansyl group now linked to the casein. The relative transglutaminase activity is shown by increase of fluorescence intensity over time. The data were normalized for transglutaminase expression levels in E. coli lysate as described above. Pro-domain variants were identified based on their ability to alter the activity of the mature transglutaminase enzyme. […]
It is believed that these pro-peptide variants have reduced binding affinity with mature mTgase.

Chains of the proteins cited; added tags and fusions are not shown. Lines headed by an entry give the natural chain unless they say otherwise; changes in a name come on top. A line that says so, or that is headed by a name, gives the form on record, which may keep a tag or linker.
UniProt P81453, other isoform, or with tags, fused parts or gaps: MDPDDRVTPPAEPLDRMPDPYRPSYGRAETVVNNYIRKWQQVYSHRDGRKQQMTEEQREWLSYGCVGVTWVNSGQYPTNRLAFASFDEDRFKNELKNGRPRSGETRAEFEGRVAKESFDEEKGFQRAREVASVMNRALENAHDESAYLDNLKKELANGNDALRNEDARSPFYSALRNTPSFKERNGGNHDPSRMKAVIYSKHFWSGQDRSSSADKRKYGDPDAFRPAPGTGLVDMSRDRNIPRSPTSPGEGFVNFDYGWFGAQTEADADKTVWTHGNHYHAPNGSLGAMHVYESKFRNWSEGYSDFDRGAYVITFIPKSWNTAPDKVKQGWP

[2] = molecular target: T1, thermostable mature transglutaminase variant (SEQ ID NO: 3); assay: pH-responsiveness screen: casein/dansylcadaverine assay at pH 6.0 and pH 8.0 in the presence of pro-peptide variants (Method A); format: biochemical; conditions: casein assay initial rates, pH 6.0 relative to pH 8.0, normalized for expression
From the text: as §1, §2
A secondary screen was performed to determine initial rate of transglutaminase in the presence of the pro-peptide variants using transglutaminase-catalyzed labeling of casein with dansylcadaverine (e.g., a commercially available kit such as the Transglutaminase Fluorogenic Activity Assay Kit, T036, Zedira, Germany). Transglutaminase activity was monitored by measuring the fluorescence (excitation wavelength 332 nm; emission wavelength 500 nm) using a BioTek Synergy H1 microplate reader. Transglutaminase-catalyzed covalent coupling (crosslinking) of monodansylcadaverine with N,N-dimethylcasein produces a product that causes a shift in intensity and wavelength of fluorescence of the dansyl group now linked to the casein. The relative transglutaminase activity is shown by increase of fluorescence intensity over time. The data were normalized for transglutaminase expression levels in E. coli lysate as described above. Pro-domain variants were identified based on their ability to alter the activity of the mature transglutaminase enzyme.
To evaluate pH-responsiveness, initial rates of the active transglutaminase in the presence of pro-peptide variants were determined at pH 6.0 and pH 8.0 using the casein assay. Briefly, this assay was conducted at pH 6.0 and pH 8.0 for each pro-peptide variant to interrogate pH-responsive modulation of mature transglutaminase activity. Activity of the mature enzyme in the presence of each pro-peptide variant was normalized against transglutaminase expression levels using a commercially available ELISA (Zedira E021).

| Sequence | Improvement in binding affinity of inhibitory peptide relative to WT [1] | Improvement in pH responsiveness of inhibitory peptide relative to WT [2] | Reduction in binding affinity of inhibitory peptide relative to WT [1] |
| --- | --- | --- | --- |
| MDNGAGETTKSYAETYRLTADDVANINALNESAPAASSAGPSFRAP [Variant E8T] | >1.2 fold | >1.2 fold |  |
| MDNGAGEETKSYAETYRLTADDVANINALNESAPAASSAGPSFRAA [Variant P46A] | >1.2 fold | >1.2 fold |  |
| MDNGAGEEVKSYAETYRLTADDVANINALNESAPAASSAGPSFRAP [Variant T9V] | >1.2 fold | >1.2 fold |  |
| MDNGAGELTKSYAETYRLTADDVANINALNESAPAASSAGPSFRAP [Variant E8L] | >1.2 fold | >1.2 fold |  |
| MDNGAGEETKSYAETYRLTADDVANINALNESAPAASSAGPSFRAI [Variant P46I] | >1.2 fold | >1.2 fold |  |
| MDNGAGEETKSYAETYRLTADDVANINALNESAPAASSAGPSFRAL [Variant P46L] | >1.2 fold | >1.2 fold |  |
| MDNGAGSETKSYAETYRLTADDVANINALNESAPAASSAGPSFRAP [Variant E7S] | >1.2 fold | >5 fold |  |
| MDNGAGEEKKSYAETYRLTADDVANINALNESAPAASSAGPSFRAP [Variant T9K] | >1.2 fold | >1.2 fold |  |
| MPNGAGEETKSYAETYRLTADDVANINALNESAPAASSAGPSFRAP [Variant D2P] | >1.2 fold | >5 fold |  |
| MDNGAGEEHKSYAETYRLTADDVANINALNESAPAASSAGPSFRAP [Variant T9H] | >1.2 fold | >1.2 fold |  |
| MDNGAGEETKSYAETYRLTALDVANINALNESAPAASSAGPSFRAP [Variant D21L] |  | >1.2 fold | >5 fold |
| MDNGAGEETKSYAETYRLTADDVVNINALNESAPAASSAGPSFRAP [Variant A24V] | >1.2 fold | >5 fold |  |
| MDNGAGEETKSYAETYRLTADDVANINALNESAPAASHAGPSFRAP [Variant S38H] | >1.2 fold | >1.2 fold |  |
| MDNGAGEETKSYAETYRLTAVDVANINALNESAPAASSAGPSFRAP [Variant D21V] | >1.2 fold | >1.2 fold |  |
| MDNGAGEETKSYAETYRLTADDVANINALNESAPAASSAGPSFRAR [Variant P46R] | >1.2 fold | >1.2 fold |  |
| MDNGAGEETKSYAETYRLTASDVANINALNESAPAASSAGPSFRAP [Variant D21S] | >1.2 fold | >1.2 fold |  |
| MDNGAGEETKSYAETYRLTADDVANINALNESAPAASVAGPSFRAP [Variant S38V] | >1.2 fold | >1.2 fold |  |
| MDNGAGLETKSYAETYRLTADDVANINALNESAPAASSAGPSFRAP [Variant E7L] | >1.2 fold | >1.2 fold |  |
| MDNGAGEETKDYAETYRLTADDVANINALNESAPAASSAGPSFRAP [Variant S11D] |  | >1.2 fold | >1.2 fold |
| MDNGAGEEAKSYAETYRLTADDVANINALNESAPAASSAGPSFRAP [Variant T9A] | >1.2 fold | >1.2 fold |  |
| MQNGAGEETKSYAETYRLTADDVANINALNESAPAASSAGPSFRAP [Variant D2Q] | >1.2 fold | >1.2 fold |  |
| MDNGAGEETKSYAETYRLTAMDVANINALNESAPAASSAGPSFRAP [Variant D21M] | >1.2 fold | >5 fold |  |
| MDNGAGERTKSYAETYRLTADDVANINALNESAPAASSAGPSFRAP [Variant E8R] | >1.2 fold | >1.2 fold |  |
| MDNGAGEETKSYAETYRLTADDVANINALNESAPAASSAGPSFRA [ΔP46] | >1.2 fold | >1.2 fold |  |
| MDNGAGEETKSYAETYRLTADDVANINALNESAPAASTAGPSFRAP [Variant S38T] | >1.2 fold | >1.2 fold |  |
| MDNGAGCETKSYAETYRLTADDVANINALNESAPAASSAGPSFRAP [Variant E7C] | >1.2 fold | >1.2 fold |  |
| MDNGAGEETKSYAQTYRLTADDVANINALNESAPAASSAGPSFRAP [Variant E14Q] | >1.2 fold | >1.2 fold |  |
| MDNGAGEEYKSYAETYRLTADDVANINALNESAPAASSAGPSFRAP [Variant T9Y] | >1.2 fold | >1.2 fold |  |
| MDNGAGEETKSYAETYRLTADDVANINALNESAPAASSAGPSFRAN [Variant P46N] | >1.2 fold | >5 fold |  |
| MDNGAGEETKSYAETYRLTADDVANINALNESAPAASSAGPSFRAE [Variant P46E] | >1.2 fold | >1.2 fold |  |

Reference: patent US20250304927A1, “PRO-PEPTIDE VARIANTS FOR MODULATING ACTIVITY OF TRANSGLUTAMINASES” (CURIE CO. INC., priority 2022, published 2025)
